Experimental data taken from patent EP4806890A1, “CRYSTALLINE COMPOUND OR BASIC SALT THEREOF, PREPARATION METHOD THEREFOR, AND USE THEREOF” (Abbisko Therapeutics Co., Ltd., priority 2023, dated 2025).
The name of at least one read-out is uncertain.

Assay: Solubility determination (equilibrium solubility, 24 hrs stirring at room temperature, HPLC)
Assay type: physicochemical
Protocol: The stability and solubility of the crystalline free form of the compound of formula (I) or the basic salt thereof of the present application were determined by HPLC.
The desired amount of the compound was weighed into a glass vial, and the desired amount of a vehicle was added. A stir bar was added to the vial, and the mixture was stirred at room temperature for 24 hrs. After 24 hrs, the appearance of the sample was observed. An appropriate amount of the sample was filtered through a PVDF 0.45 µm filter membrane, and the filtrate was collected. The pH value of the filtrate was determined, and the sample was diluted with MeOH. The diluted sample was injected into an HPLC system to determine the concentration.

Compound: Cc1c(NC(=O)c2cc(C3CC3)c(CN3CCCC[C@H]3C(=O)O)cn2)cccc1-c1cccc(NC(=O)c2cc(C3CC3)c(CN3CCCC[C@H]3C(=O)O)cn2)c1C [free-form crystalline form F, (2S,2'S)-1,1'-(((((2,2'-dimethyl-[1,1'-biphenyl]-3,3'-diyl)bis(azanediyl))bis(carbonyl))bis(4-cyclopropylpyridine-6,3-diyl))bis(methylene))bis(piperidine-2-carboxylic acid)]
- solubility value increased by a factor, compared to the free-form crystalline form C (simulated biological medium FaSSIF): nearly one hundred
- solubility value increased by a factor, compared to the free-form crystalline form C (simulated biological medium FeSSIF): several hundreds
